22 compounds from PubChem BioAssay AID296 (DTP/NCI, 2004) can be followed below.

In this assay the test system is MX-1 breast xenograft, nude mice, tumor weight T/C. Nature of the assay: NCI In Vivo Anticancer Drug Screen. Data for tumor model Human Mammary Carcinoma MX-1 Xenograft (intrarenal inoculation) in NU/NU Swiss (nude) mice. The following applies: T/C endpoint: mean tumor weight change, higher T/C = larger tumour; for T/C: evaluated on day 11. Summed up: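 Tumor-bearing mice were treated with test compound alongside a vehicle-treated control group. Survival or tumor size was measured, and activity is expressed as the treated-group value divided by the control-group value.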

The mark [1] stands for this setting: dose: 200.0 mg/kg/injection, schedule: Q01DX010 (sc), vehicle: saline.
The mark [2] stands for this setting: dose: 400.0 mg/kg/injection, schedule: Q01DX010 (sc), vehicle: saline.
Setting [3] is: dose: 150.0 mg/kg/injection, schedule: Q04DX003 (sc), vehicle: Klucel (hydroxypropylcellulose) (HPC).
[4] abbreviates: dose: 300.0 mg/kg/injection, schedule: Q04DX003 (sc), vehicle: Klucel (hydroxypropylcellulose) (HPC).
[5] abbreviates: dose: 1200.0 mg/kg/injection, schedule: Q04DX003 (sc), vehicle: Klucel (hydroxypropylcellulose) (HPC).
Setting [6] is: dose: 75.0 mg/kg/injection, schedule: Q04DX003 (sc), vehicle: Klucel (hydroxypropylcellulose) (HPC).
Setting [7] is: dose: 400.0 mg/kg/injection, schedule: Q01DX010 (sc), vehicle: suspension in saline.

The list does not hold the whole screen: it gathers tests that were run many times, whatever their T/C, doses with no T/C, and many T/C values between a quarter and a half above the control. Further doses and runs are listed elsewhere. T/C is the treated group as % of the vehicle group. Schedule codes are those of the source, read here as Q, the interval in days (D) or hours (H), X, the number of doses. Some T/C values are followed by the survivors on the day toxicity was checked, most often the fifth; where none is given, no animal had died by that day. Some entries give survivors of the animals treated and no T/C: the source holds a T/C of zero for them, seemingly a mark for toxic or unscored doses. Survivors were counted at the toxicity check, usually on the fifth day, unless a day is given; later deaths do not show. Some doses were run more than once; the values are given in rising order.

Regarding `C(CSC1=NCCN1)CSC1=NCCN1`, the T/C (dose: 100.0 mg/kg/injection, schedule: Q01DX010 (sc), vehicle: saline) was 133 % of control. Besides, the survivor count runs as follows: under setting [1], 0 of 3 on day 11; under setting [2], 0 of 3 on day 11.

On to `CC1=C2CC(C)(C)/C=C\C(=O)/C(C)=C\C3=C[C@H](C)C[C@]3(O2)C1=O`, for which the survivor count reads like this: (dose: 100.0 mg/kg/injection, schedule: Q04DX003 (sc), vehicle: Klucel (hydroxypropylcellulose) (HPC)) 3 of 6 on day 11; under setting [3], 2 of 6 on day 11; under setting [4], 0 of 6 on day 11; (dose: 600.0 mg/kg/injection, schedule: Q04DX003 (sc), vehicle: Klucel (hydroxypropylcellulose) (HPC)) 0 of 6 on day 11; under setting [5], 0 of 6 on day 11.

Turning to `C/C=C/C=C/c1cc2cc3c(c(O)c2c(=O)[nH]1)C1(CC3)C(O)=c2c(=O)c3c(=O)cc(OC)c(=O)c=3c(=O)c2=C1O` (configuration not stated), the T/C (dose: 2.0 mg/kg/injection, schedule: Q01DX010 (sc), vehicle: DMSO) was 129 % of control [2 of 2 alive on day 11] and the T/C (dose: 4.0 mg/kg/injection, schedule: Q01DX010 (sc), vehicle: DMSO) was 136 % of control.

For the compound `CC[n+]1c(-c2ccccc2)c2cc(N)ccc2c2ccc(N)cc21`, where the note is “dose: 120.0 mg/kg/injection, schedule: Q04DX003 (sc), vehicle: saline”, the survivor count is 3 of 6 on day 11.

In the case of `N=c1nc2n(cc1F)[C@@H]1O[C@H](CO)[C@@H](O)[C@@H]1O2`, the survivor count (dose: 2400.0 mg/kg/injection, schedule: Q04DX003 (sc), vehicle: suspension in saline) is listed as 3 of 6 on day 11.

`C/C=C/c1cc2c(c(=O)o1)C(=O)[C@@H](O)[C@H](C)O2`: the survivor count (dose: 400.0 mg/kg/injection, schedule: Q04DX003 (sc), vehicle: saline with Tween-80) was 2 of 6 on day 11.

With `C1CN(P2(N3CC3)=NP(N3CC3)(N3CC3)=NP(N3CC3)(N3CC3)=N2)CCO1` (configuration not stated), the survivor count is 0 of 6 on day 11 and 1 of 6 on day 11 (dose: 100.0 mg/kg/injection, schedule: Q04DX003 (sc), vehicle: saline); 0 of 6 on day 11 (dose: 200.0 mg/kg/injection, schedule: Q04DX003 (sc), vehicle: saline); 0 of 6 on day 11 (dose: 400.0 mg/kg/injection, schedule: Q04DX003 (sc), vehicle: saline).

Turning to `N#C[Se-].c1ccc([Te+](c2ccccc2)c2ccccc2)cc1`, the T/C (dose: 15.0 mg/kg/injection, schedule: Q04DX003 (sc), vehicle: Klucel (hydroxypropylcellulose) (HPC)) was 127 % of control. For the same compound, the survivor count is given as 1 of 6 on day 11 (dose: 37.5 mg/kg/injection, schedule: Q04DX003 (sc), vehicle: Klucel (hydroxypropylcellulose) (HPC)); 0 of 6 on day 11 under setting [6]; 0 of 6 on day 11 under setting [3]; 0 of 6 on day 11 under setting [4].

As to `O=C(O)CC(NC(=O)CP(=O)(O)O)C(=O)O.[NH-]C1CCCCC1[NH-].[Pt+2]` (configuration not stated), the survivor count was 2 of 6 on day 11 (dose: 100.0 mg/kg/injection, schedule: Q04DX003 (sc), vehicle: dextrose) and 0 of 6 on day 11 (dose: 200.0 mg/kg/injection, schedule: Q04DX003 (sc), vehicle: dextrose).

Consider `Nc1cc2[nH]cnc2c(=O)[nH]1`, for which the survivor count under setting [1] is given as 0 of 3 on day 11, the survivor count under setting [2] is 0 of 3 on day 11 and the survivor count under setting [7] was 2 of 6 on day 15.

Regarding `CC(C)(C)NC(C1=CC(C)(C)c2ccccc2C1=O)c1ccccc1` (configuration not stated), the survivor count is, setting by setting: (dose: 600.0 mg/kg/injection, schedule: Q04DX003 (ip), vehicle: Klucel (hydroxypropylcellulose) (HPC)) 2 of 6 on day 11; (dose: 1200.0 mg/kg/injection, schedule: Q04DX003 (ip), vehicle: Klucel (hydroxypropylcellulose) (HPC)) 0 of 5 on day 11.

With `NC(=O)c1[nH]nc(C2OC(CO)C(O)C2O)c1O` (configuration not stated), the survivor count runs as follows: (dose: 20.0 mg/kg/injection, schedule: Q04DX003 (sc), vehicle: saline) 2 of 6 on day 11; (dose: 40.0 mg/kg/injection, schedule: Q04DX003 (sc), vehicle: saline) 0 of 6 on day 11.

With `C=C1C(=O)C2=CC1CCC(=O)C1(C)CCC(OC(C)=O)C(C)(C)C1CC2O` (configuration not stated), the survivor count (dose: 240.0 mg/kg/injection, schedule: Q04DX003 (sc), vehicle: Klucel (hydroxypropylcellulose) (HPC)) was 0 of 6 on day 11.

With `CNC(=O)OCc1nc(SC)n(C)c1COC(=O)NC`, the survivor count (dose: 400.0 mg/kg/injection, schedule: Q04DX003 (ip), vehicle: saline) was 1 of 6 on day 11.

For `CS(=O)(=O)Nc1ccc(C(=O)CCN2CCCCCC2)cc1`, the survivor count reads like this: (dose: 600.0 mg/kg/injection, schedule: Q04DX003 (sc), vehicle: saline with Tween-80) 2 of 6 on day 11; (dose: 1200.0 mg/kg/injection, schedule: Q04DX003 (sc), vehicle: saline with Tween-80) 0 of 6 on day 11.

For `CN(CO)c1nc(N(C)CO)nc(N(C)CO)n1`, the survivor count (dose: 25.0 mg/kg/injection, schedule: Q01DX008 (ip), vehicle: saline) is 0 of 5; the survivor count (dose: 50.0 mg/kg/injection, schedule: Q01DX008 (ip), vehicle: saline) is recorded as 0 of 5; the survivor count (dose: 100.0 mg/kg/injection, schedule: Q01DX008 (ip), vehicle: saline) was 0 of 5; the survivor count (dose: 200.0 mg/kg/injection, schedule: Q01DX008 (ip), vehicle: saline) is listed as 0 of 5; the survivor count (dose: 200.0 mg/kg/injection, schedule: Q01DX010 (sc), vehicle: suspension in saline) is reported as 2 of 6 on day 11; the survivor count (dose: 300.0 mg/kg/injection, schedule: Q04DX003 (sc), vehicle: saline) is recorded as 2 of 6 on day 11. Further, the survivor count reads like this: (dose: 300.0 mg/kg/injection, schedule: Q04DX003 (sc), vehicle: suspension in saline) 1 of 6 on day 11; under setting [7], 0 of 6 on day 11; (dose: 600.0 mg/kg/injection, schedule: Q04DX003 (sc), vehicle: saline) 0 of 6 on day 11 and 3 of 6 on day 11; (dose: 600.0 mg/kg/injection, schedule: Q04DX003 (sc), vehicle: suspension in saline) 0 of 6 on day 11 and 1 of 6 on day 11.

On to `CCCCCCCCCCCCCCC/C([O-])=N/[N+](C)(C)CC(C)O` (configuration not stated), for which the T/C is, setting by setting: (dose: 400.0 mg/kg/injection, schedule: Q04DX003 (sc), vehicle: Klucel (hydroxypropylcellulose) (HPC)) 144 % of control; under setting [5], 143 % of control.

Regarding `COc1c(O)c2c(c3cc(C(=O)N4CCc5c4c(O)c(OC)c4[nH]c(C(=O)N6CC7CC78C6=CC(=O)c6[nH]cc(C)c68)cc54)[nH]c13)CCN2C(N)=O` (configuration not stated), the T/C is 131 % of control (dose: 50.0 micrograms/kg/injection, schedule: Q01DX010 (sc), vehicle: DMSO) and 136 % of control (dose: 200.0 micrograms/kg/injection, schedule: Q01DX010 (sc), vehicle: DMSO).

Consider `CCC[CH2][Hg][Cl]`, for which the survivor count under setting [6] is reported as 2 of 6 on day 11.

As to `CC[C@]1(O)C[C@H]2CN(CCc3c([nH]c4ccccc34)[C@@](C(=O)OC)(c3cc4c(cc3OC)N(C=O)[C@H]3[C@@](O)(C(=O)OC)[C@H](OC(C)=O)[C@]5(CC)C=CCN6CC[C@]43[C@@H]65)C2)C1`, the survivor count (dose: 1.0 mg/kg/injection, schedule: Q01DX010 (sc), vehicle: saline) is 1 of 3 on day 11.

Regarding `Cc1cn(C2CC3[O][Sn]([c]4ccccc4)([c]4ccccc4)[O]CC3O2)c(=O)[nH]c1=O` (configuration not stated), the T/C (dose: 50.0 mg/kg/injection, schedule: Q01DX010 (sc), vehicle: saline) is 143 % of control.

As to `CCc1ccc(C2=C(O)C(=O)C(c3ccccc3)=C(O)C2=O)cc1`, the T/C under setting [6] was 126 % of control.
